Reference: PubChem BioAssay AID588590 (National Center for Advancing Translational Sciences (NCATS), 2011)
Values joined by “and” are separate entries in the source; they are usually repeats but may differ in a detail not shown here. Equal entries are not always repeated. The whole screen tested about 390,000 compounds, of which about 4,000 (1%) were called active. Inconclusive results, whose numbers are uncertain, are shown with a selection of clear calls. Calls come from the whole dose curve; as a rule, active = well fitted inhibition curve with a large enough effect; inconclusive = small, poorly fitted or top-dose-only effect, or another doubt; inactive = no such curve, though single readings can be large or run the other way. Potencies beside an inconclusive call are fits to weak or partial responses and may not hold up.

Chains of the proteins cited; added tags and fusions are not shown. Lines headed by an entry give the natural chain unless they say otherwise; changes in a name come on top.
UniProt Q9UNA4: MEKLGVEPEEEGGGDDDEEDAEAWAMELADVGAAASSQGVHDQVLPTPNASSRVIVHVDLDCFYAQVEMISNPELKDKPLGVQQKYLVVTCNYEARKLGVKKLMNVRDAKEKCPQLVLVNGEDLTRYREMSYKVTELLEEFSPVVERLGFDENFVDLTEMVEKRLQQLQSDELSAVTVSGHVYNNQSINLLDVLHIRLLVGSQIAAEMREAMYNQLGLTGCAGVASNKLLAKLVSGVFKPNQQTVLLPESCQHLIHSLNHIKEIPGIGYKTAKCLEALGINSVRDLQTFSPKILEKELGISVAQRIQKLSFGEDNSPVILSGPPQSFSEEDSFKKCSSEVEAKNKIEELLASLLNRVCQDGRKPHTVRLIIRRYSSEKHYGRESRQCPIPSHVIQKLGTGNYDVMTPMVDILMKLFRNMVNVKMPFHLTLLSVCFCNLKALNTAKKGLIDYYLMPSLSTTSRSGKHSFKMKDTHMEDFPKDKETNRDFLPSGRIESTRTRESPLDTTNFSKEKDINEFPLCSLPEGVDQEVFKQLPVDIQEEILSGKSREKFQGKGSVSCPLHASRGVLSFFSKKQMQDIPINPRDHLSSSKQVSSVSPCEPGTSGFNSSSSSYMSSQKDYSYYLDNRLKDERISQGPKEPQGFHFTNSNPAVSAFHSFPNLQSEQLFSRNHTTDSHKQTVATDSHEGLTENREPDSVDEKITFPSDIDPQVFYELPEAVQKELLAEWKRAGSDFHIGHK

Target: DNA polymerase iota (Homo sapiens) (UniProt Q9UNA4)
Assay: qHTS for Inhibitors of Polymerase Iota
Conditions: Pol iota fluorescent replication assay, 10 min; series mostly up to 115 µM; activity, negative = inhibition: at the top concentration
Outline: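 Fluorescent replication assay read twice, at 0 min and 10 min after adding 50 nM (final) substrate. Enzyme (10 nM) and compounds were first incubated 15 min at room temperature; enzyme-free buffer wells were negative controls.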
Potency is the fitted concentration of half-maximal effect.

Q: For `O=C(O)[C@@H]1C[C@H]2C[C@@H](CP(=O)(O)O)CC[C@H]2CN1`, which Potency is on record?
A: Its Potency is inconclusive: 89.1 µM [inhibitor, single point].

Q: `O=C(c1ccccc1)c1ccc(N=Nc2c(O)[nH]c(=O)[nH]c2=O)cc1` was tested. Which Potency did it give?
A: The Potency was inconclusive: 39.8 µM [inhibitor, single point].

Q: How did the Potency turn out when `CCC(C)NC(=O)c1c(N)n(CC2CCCO2)c2nc3ccccc3nc12` (stereo not given) was run?
A: Its Potency is inconclusive: 15.8 µM [inhibitor, partial curve, poor fit].

Q: `CNCC[C@H](Oc1cccc2ccccc12)c1cccs1` was tested. Which Potency did it give?
A: The Potency was inconclusive: 89.1 µM [inhibitor, single point].

Q: `COc1ccc(-c2cc3cc(OC)c(OC)cc3cn2)cc1OC` was tested. Which Potency did it give?
A: The Potency was inconclusive: 22.4 µM [inhibitor, full curve, poor fit].

Q: For `O=C1NC(=O)N(Cc2ccccc2)C(=O)/C1=C\C=C\c1ccco1`, which Potency is on record?
A: The Potency was active: 15.8 µM.

Q: With `COc1ccc2[nH]c(C)c(CCNCc3cccnc3)c2c1` as the molecule, how does the Potency read?
A: Its Potency is inconclusive: 25.1 µM [inhibitor, partial curve].

Q: `COC(=O)c1ccc(N2CCN(C)CC2)c([N+](=O)[O-])c1` was tested. Which Potency did it give?
A: Its Potency is inconclusive: 79.4 µM [inhibitor, partial curve, poor fit].

Q: Which Potency does the source give for `Cc1cccc(-n2c(O)c(/C=N/NC(=O)c3ccncc3)c(=O)[nH]c2=O)c1` here?
A: Its Potency is inconclusive: 25.1 µM [inhibitor, single point].

Q: Which Potency does the source give for `Cn1cc(C=C2C(=O)NC(=O)NC2=O)c2ccccc21` here?
A: The Potency was inconclusive: 15.8 µM [inhibitor, partial curve, poor fit].

Q: Which Potency does the source give for `CCC1(O)C(=O)OCc2c1cc1n(c2=O)Cc2cc3cc(O)ccc3nc2-1` (stereo not given) here?
A: The Potency was active: 22.4 µM.

Q: Which Potency does the source give for `C[N+]1(C)C2CCC1CC(OC(=O)c1c[nH]c3ccccc13)C2` (stereo not given) here?
A: The Potency was “inactive”.

Q: With `[Cl][Pt+2][Cl].[NH-]C1CCCCC1[NH-]` (stereo not given) as the molecule, how does the Potency read?
A: The Potency was inconclusive: 14.1 µM [inhibitor, partial curve, poor fit].

Q: With `O=C1NC(=O)N(c2cccc(Cl)c2)C(=O)/C1=C\c1ccc(Sc2nc3ccccc3[nH]2)o1` as the molecule, how does the Potency read?
A: The Potency was inconclusive: 11.2 µM [inhibitor, partial curve, poor fit].

Q: With `O=Cc1ccc(O)c(O)c1` as the molecule, how does the Potency read?
A: The Potency was inconclusive: 39.8 µM [inhibitor, single point].

Q: How did the Potency turn out when `C(=N\NC1=NCCCCC1)/c1c[nH]c2ccccc12` was run?
A: The Potency was inconclusive: 70.8 µM [inhibitor, partial curve, poor fit].

Q: Which Potency does the source give for `COC(=O)C1=C(c2ccc(C(C)=O)cc2)C[C@@H]2CC[C@H]1N2C(=O)NCCO` here?
A: The Potency was inconclusive: 39.8 µM [inhibitor, single point].

Q: For `C=CCn1c(O)c(C=NCCCOc2ccc(CC)cc2)c(=O)[nH]c1=S`, which Potency is on record?
A: The Potency was inconclusive: 28.2 µM [inhibitor, partial curve, poor fit].

Q: Which “activity, negative = inhibition” value does the source give for `CCN1C(=O)C(=Cc2ccc(C)s2)C(=O)N(CC)C1=S` here?
A: Its value is inactive: 0.495%.

Q: For `O=C1NC(=O)N(Cc2ccco2)C(=O)/C1=C\c1ccc(-c2ccc(F)cc2)o1`, which Potency is on record?
A: The Potency was active: 11.2 µM.

Q: `O=C(C(=C1N(Cc2ccc(Cl)nc2)CCN1Cc1ccc(Cl)nc1)[N+](=O)[O-])C(Cl)Cl` was tested. Which Potency did it give?
A: Its Potency is inconclusive: 39.8 µM [inhibitor, single point].

Q: With `COc1cc(C(c2c(C)[nH]n(-c3ccccc3)c2=O)c2c(C)[nH]n(-c3ccccc3)c2=O)cc(OC)c1OC` as the molecule, how does the “activity, negative = inhibition” value read?
A: The value was inactive: -101%.

Q: How did the Potency turn out when `COc1cc(NC(=O)CN2C3CCC2CC(O)(c2cccnc2)C3)cc(OC)c1` (stereo not given) was run?
A: Its Potency is inconclusive: 10 µM [inhibitor, single point].

Q: How did the Potency turn out when `O=C(NC1(C(F)(F)F)Oc2ccccc2O1)N1CCC2(CC1)OCCO2` was run?
A: Its Potency is inconclusive: 28.2 µM [inhibitor, single point].

Q: For `CCCCn1c(O)c(C(C)=Nc2ccc(C(=O)O)cc2)c(=O)[nH]c1=O`, which Potency is on record?
A: The Potency was inconclusive: 39.8 µM [inhibitor, single point].

Q: Which “activity, negative = inhibition” value does the source give for `O=C(CNS(=O)(=O)c1ccc(Br)s1)N1CCC2(CC1)OCCO2` here?
A: The value was inactive: -1.46%.

Q: `O=c1[nH]c(=S)[nH]c(O)c1/C=C1/C=c2ccccc2=N1` was tested. Which Potency did it give?
A: The Potency was active: 28.2 µM.

Q: `O=C(NCCc1ccccc1)c1ccc2nccnc2c1` was tested. Which “activity, negative = inhibition” value did it give?
A: Its value is inactive: 34.8%.

Q: `COc1cccc(CN2CCCCC2c2cccnc2)c1` (stereo not given) was tested. Which Potency did it give?
A: The Potency was inconclusive: 10 µM [inhibitor, full curve, poor fit].

Q: Which Potency does the source give for `CC(C)CC(NP(=O)(O)O[C@@H]1O[C@@H](C)[C@H](O)[C@@H](O)[C@H]1O)C(=O)NC(Cc1c[nH]c2ccccc12)C(=O)O` (stereo not given in full) here?
A: Its Potency is inconclusive: 20 µM [inhibitor, partial curve].

Q: Which Potency does the source give for `O=C1NC(=O)C(=Cc2coc3ccc(O)cc3c2=O)C(=O)N1` here?
A: The Potency was inconclusive: 12.6 µM [inhibitor, partial curve, poor fit].

Q: How did the Potency turn out when `CSC(=Nc1ccccc1)c1c(O)n(C)c(=O)n(C)c1=O` was run?
A: The Potency was inconclusive: 14.1 µM [inhibitor, partial curve, poor fit].

Q: Which Potency does the source give for `CN(C)C(Cc1ccccc1)C(=O)c1ccccc1` (stereo not given) here?
A: The Potency was inconclusive: 112 µM [inhibitor, single point].

Q: `CC(=O)Nc1ccc2c(c1)CC1(C(=O)N(C)C(=O)N(C)C1=O)C1CCCN21` (stereo not given) was tested. Which Potency did it give?
A: The Potency was inconclusive: 17.8 µM [inhibitor, partial curve, poor fit].

Q: `Cc1ccc(Cn2nnnc2CN2CCC(n3nnc4ccccc43)CC2)cc1` was tested. Which Potency did it give?
A: The Potency was inconclusive: 39.8 µM [inhibitor, single point].

Q: `Clc1ccc(COC(Cn2ccnc2)c2ccc(Cl)cc2Cl)c(Cl)c1` (stereo not given) was tested. Which Potency did it give?
A: Its Potency is inconclusive: 7.08 µM [inhibitor, full curve, poor fit].

Q: For `CN1CCN(c2nccc3c2ncn3C)CC1`, which Potency is on record?
A: Its Potency is inconclusive: 0.708 µM [inhibitor, full curve, poor fit].

Q: How did the Potency turn out when `CCN(CC)P(=O)(NC(=O)C(Cl)(Cl)Cl)N(CC)CC.[Cl-].[Cl-].[Cl-].[Nd+3]` was run?
A: The Potency was inconclusive: 12.6 µM [inhibitor, partial curve, poor fit] and inconclusive: 79.4 µM [inhibitor, partial curve].

Q: Which Potency does the source give for `O=C1Nc2ccccc2C(c2ccccc2)=NC1O` (stereo not given) here?
A: Its Potency is inconclusive: 25.1 µM [inhibitor, full curve, poor fit].

Q: For `COC(=O)C1=C(c2ccc(C(C)=O)cc2)C[C@@H]2CC[C@H]1N2C(=O)N1CCCC1`, which Potency is on record?
A: Its Potency is inconclusive: 56.2 µM [inhibitor, single point].
